According to the supplement of paper PMC3334620:
In all, about 33,000 sequences were measured (“E-score (-0.5 to 0.5)”: median about -0.016, highest 2% from about 0.3 on). The list shows a part of the results.

Each sequence was assayed against T1, Yer184c (UniProt P39961) (assay: PBM E-score (8-mer binding enrichment) (E-score (-0.5 to 0.5)); higher = stronger / more preferred TF binding). Conditions: protein concentration: 100 nM; construct: GST-full length.
T1 sequence: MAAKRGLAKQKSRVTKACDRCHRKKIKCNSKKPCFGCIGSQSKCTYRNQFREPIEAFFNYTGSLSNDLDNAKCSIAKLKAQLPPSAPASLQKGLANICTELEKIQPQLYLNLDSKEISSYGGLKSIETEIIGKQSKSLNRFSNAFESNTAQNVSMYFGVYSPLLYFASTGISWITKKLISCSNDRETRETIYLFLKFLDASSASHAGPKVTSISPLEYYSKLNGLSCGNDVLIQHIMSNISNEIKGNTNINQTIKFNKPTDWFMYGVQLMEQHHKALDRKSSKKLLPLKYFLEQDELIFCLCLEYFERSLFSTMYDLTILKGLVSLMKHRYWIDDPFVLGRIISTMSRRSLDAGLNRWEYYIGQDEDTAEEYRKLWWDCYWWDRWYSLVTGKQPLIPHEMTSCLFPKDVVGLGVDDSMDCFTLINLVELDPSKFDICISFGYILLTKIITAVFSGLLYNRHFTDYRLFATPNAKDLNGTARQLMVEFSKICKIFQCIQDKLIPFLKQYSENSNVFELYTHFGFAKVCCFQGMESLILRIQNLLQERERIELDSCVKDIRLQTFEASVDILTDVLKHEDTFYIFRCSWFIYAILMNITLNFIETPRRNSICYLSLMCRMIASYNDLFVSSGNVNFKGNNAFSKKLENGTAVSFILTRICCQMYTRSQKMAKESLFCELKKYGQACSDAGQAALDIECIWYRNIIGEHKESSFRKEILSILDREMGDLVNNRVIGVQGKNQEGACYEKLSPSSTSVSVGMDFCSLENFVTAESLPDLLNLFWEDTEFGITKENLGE
Summary of the method: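 Detection of bound protein used fluorescent anti-GST, with scans normalised by masliner. The proteins were GST-tagged yeast transcription factors applied at about 100-200 nM to universal all-10-mer Agilent arrays made double-stranded by primer extension. Each ungapped eight-base word, pooled with its reverse complement, was scored with an E-score from the Universal PBM Analysis Suite.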

In order of falling “PBM E-score” value:
1. CACCGGAA  0.368
2. AGTATATA  0.334
3. CGTCCGGA  0.323
4. CGCGGATA  0.317
5. CCGGAGAC  0.303
6. CGCGGCTA  0.283
7. TAAAGAAA  0.268
8. CCGGCTAC  0.267
9. AATCGCCG  0.261
10. GCCGGTGA  0.235
11. CGGACTAA  0.235
12. ACGGATCT  0.213
13. ATTATATA  0.212
14. AAATTAGA  0.207
15. AGTTTTGC  0.202
16. AAAGTGAT  0.189
17. AGATAAAA  0.187
18. CATCGGAC  0.174
19. GCGATGGA  0.17
20. CACTGAAC  0.166
21. AATTTCGT  0.163
22. ACGGATTG  0.161
23. ACTGAAAA  0.158
24. ACTAGTAT  0.147
25. GATTGCGC  0.144
26. GCGGTGAA  0.132
27. CGGAGTCC  0.131
28. CTGAAAAC  0.125
29. TCATGGAA  0.125
30. ACGAACGC  0.11
31. CGGGTAAC  0.108
32. AAATCTGA  0.105
33. TCAGTCAA  0.102
34. CCATGAAA  0.0937
35. GAATTCAC  0.092
36. CGATATCA  0.0879
37. ATACTGAC  0.0876
38. TAGCTAAA  0.085
39. TAGATCAA  0.0823
40. AACGCAGC  0.0751
41. CGGGTCGA  0.0732
42. GACACATA  0.0718
43. GCACGATA  0.0572
44. ACTCATAA  0.0564
45. AGTAACGA  0.0513
46. ACTCATCC  0.0505
47. CCCGATTA  0.0478
48. ACAGACCA  0.0448
49. ACTAAAGC  0.0412
50. AGCTTGCC  0.0378
51. GGTACTAC  0.0369
52. CTGACCGC  0.0354
53. TCGCTAAA  0.0346
54. ATGATTGG  0.0325
55. AAGGATAG  0.0283
56. ACGCAACC  0.0278
57. ATTGACAG  0.0247
58. ATTACGCG  0.0235
59. GCGTTGTA  0.0229
60. AGACTCAG  0.0226
61. GCTACGAA  0.0207
62. CTTCTCTC  0.0203
63. ACCTTTGA  0.0153
64. GGAACTCA  0.0136
65. ATCCTCAA  0.0114
66. ATTAAGCG  0.01
67. ACGACGCA  0.00815
68. ACATGGGT  0.00449
69. CCGACACA  0.00368
70. ACGCGGTC  0.00037
71. CCTCTTCG  -0.00118
72. CGCAGTTC  -0.00252
73. CATACCTC  -0.00547
74. AGGAACTC  -0.0102
75. AGAAAACG  -0.0118
76. GCAATCGA  -0.0134
77. AACATCGT  -0.0145
78. CGTTGGCA  -0.0149
79. AGATTTTA  -0.0159
80. GCGAAGCA  -0.0165
81. CTTGCCTC  -0.0167
82. TCCAATCA  -0.0172
83. ACGCCTCG  -0.0178
84. ACTGTTCA  -0.0211
85. CATAAATA  -0.0233
86. CCACTAAG  -0.0362
87. GGGAAGAC  -0.0375
88. CACCGATG  -0.0405
89. AGTAGCCC  -0.044
90. GATACCCA  -0.0454
91. ATCCCTAG  -0.0477
92. AGCTACGC  -0.0531
93. ACATGTGC  -0.0537
94. CACGTATA  -0.0539
95. AAACAGCC  -0.0542
96. CTTCGGGC  -0.0555
97. GTATCCAA  -0.0563
98. TAACCTCA  -0.0603
99. AAAGCGTA  -0.0609
100. AGGCCGCA  -0.0659
101. TATTGGGA  -0.0671
102. CACATTAA  -0.0677
103. TCATAGGA  -0.0683
104. CTGCACAG  -0.0706
105. CGCTTGAG  -0.0766
106. AAGCGACA  -0.0772
107. AAGGTAGT  -0.0814
108. GCATTGCA  -0.0815
109. GAAAGTCC  -0.0817
110. AGGGATGG  -0.086
111. CACTCACA  -0.0895
112. CGGTGTAC  -0.0899
113. AGCTATGA  -0.0916
114. ACGTCATG  -0.0927
115. ACAAGGGT  -0.0932
116. ATAGAACC  -0.0934
117. AACGAGCC  -0.102
118. GGCAAACC  -0.11
119. AGACTGTC  -0.112
120. CAGAGGAC  -0.112
121. AGTAGCAC  -0.114
122. GTGGGCGA  -0.119
123. CTCTAAAG  -0.12
124. CCTACCGA  -0.129
125. ATCAGGCA  -0.134
126. CAGCCGCA  -0.134
127. GAGGTATC  -0.141
128. CACACCAG  -0.142
129. CCATCAAG  -0.143
130. CAATCTGG  -0.145
131. ATCACCAG  -0.145
132. AGGTCCAT  -0.149
133. AACGCTCC  -0.15
134. TCGAACGA  -0.154
135. ACCATCCA  -0.154
136. CTTAGCTA  -0.154
137. ACCAGCGA  -0.158
138. GGACTCCA  -0.159
139. AAAGGGTG  -0.16
140. CCCACGAG  -0.161
141. GATGCTGC  -0.162
142. AAAGGTAG  -0.169
143. ACGTCTAT  -0.171
144. GCATGTAA  -0.171
145. AGCTCATG  -0.175
146. CCAAATAG  -0.175
147. AGTGGCAT  -0.179
148. CACCGTCC  -0.184
149. AATCCCCA  -0.187
150. CCCCATGA  -0.189
151. AGCCTGAC  -0.194
152. CGCCCCAC  -0.197
153. CCATGTGA  -0.209
154. ACGTTAGG  -0.217
155. GGTAGTCA  -0.22
156. CTGACGCC  -0.224
157. CTCGTTGA  -0.229
158. ACCACCTA  -0.233
159. AGGACTCC  -0.243
160. GTATTCGA  -0.256
161. GGAGGACC  -0.262
162. ATGCCCTA  -0.265
163. CCTGGGCA  -0.276
164. CTAGCCAC  -0.278
165. AGGACTGC  -0.279
166. CCACTAGA  -0.299
167. ACCTCTCT  -0.3
168. AGCGTTCA  -0.306
169. AAGGGCAC  -0.312
170. GACCCACC  -0.316
171. ACGTGGAG  -0.352
172. CTGCCCCC  -0.436
